The values that follow come from article PMC9998969.

The chains behind the UniProt entries cited, without tags or fusion partners.
UniProt Q14573: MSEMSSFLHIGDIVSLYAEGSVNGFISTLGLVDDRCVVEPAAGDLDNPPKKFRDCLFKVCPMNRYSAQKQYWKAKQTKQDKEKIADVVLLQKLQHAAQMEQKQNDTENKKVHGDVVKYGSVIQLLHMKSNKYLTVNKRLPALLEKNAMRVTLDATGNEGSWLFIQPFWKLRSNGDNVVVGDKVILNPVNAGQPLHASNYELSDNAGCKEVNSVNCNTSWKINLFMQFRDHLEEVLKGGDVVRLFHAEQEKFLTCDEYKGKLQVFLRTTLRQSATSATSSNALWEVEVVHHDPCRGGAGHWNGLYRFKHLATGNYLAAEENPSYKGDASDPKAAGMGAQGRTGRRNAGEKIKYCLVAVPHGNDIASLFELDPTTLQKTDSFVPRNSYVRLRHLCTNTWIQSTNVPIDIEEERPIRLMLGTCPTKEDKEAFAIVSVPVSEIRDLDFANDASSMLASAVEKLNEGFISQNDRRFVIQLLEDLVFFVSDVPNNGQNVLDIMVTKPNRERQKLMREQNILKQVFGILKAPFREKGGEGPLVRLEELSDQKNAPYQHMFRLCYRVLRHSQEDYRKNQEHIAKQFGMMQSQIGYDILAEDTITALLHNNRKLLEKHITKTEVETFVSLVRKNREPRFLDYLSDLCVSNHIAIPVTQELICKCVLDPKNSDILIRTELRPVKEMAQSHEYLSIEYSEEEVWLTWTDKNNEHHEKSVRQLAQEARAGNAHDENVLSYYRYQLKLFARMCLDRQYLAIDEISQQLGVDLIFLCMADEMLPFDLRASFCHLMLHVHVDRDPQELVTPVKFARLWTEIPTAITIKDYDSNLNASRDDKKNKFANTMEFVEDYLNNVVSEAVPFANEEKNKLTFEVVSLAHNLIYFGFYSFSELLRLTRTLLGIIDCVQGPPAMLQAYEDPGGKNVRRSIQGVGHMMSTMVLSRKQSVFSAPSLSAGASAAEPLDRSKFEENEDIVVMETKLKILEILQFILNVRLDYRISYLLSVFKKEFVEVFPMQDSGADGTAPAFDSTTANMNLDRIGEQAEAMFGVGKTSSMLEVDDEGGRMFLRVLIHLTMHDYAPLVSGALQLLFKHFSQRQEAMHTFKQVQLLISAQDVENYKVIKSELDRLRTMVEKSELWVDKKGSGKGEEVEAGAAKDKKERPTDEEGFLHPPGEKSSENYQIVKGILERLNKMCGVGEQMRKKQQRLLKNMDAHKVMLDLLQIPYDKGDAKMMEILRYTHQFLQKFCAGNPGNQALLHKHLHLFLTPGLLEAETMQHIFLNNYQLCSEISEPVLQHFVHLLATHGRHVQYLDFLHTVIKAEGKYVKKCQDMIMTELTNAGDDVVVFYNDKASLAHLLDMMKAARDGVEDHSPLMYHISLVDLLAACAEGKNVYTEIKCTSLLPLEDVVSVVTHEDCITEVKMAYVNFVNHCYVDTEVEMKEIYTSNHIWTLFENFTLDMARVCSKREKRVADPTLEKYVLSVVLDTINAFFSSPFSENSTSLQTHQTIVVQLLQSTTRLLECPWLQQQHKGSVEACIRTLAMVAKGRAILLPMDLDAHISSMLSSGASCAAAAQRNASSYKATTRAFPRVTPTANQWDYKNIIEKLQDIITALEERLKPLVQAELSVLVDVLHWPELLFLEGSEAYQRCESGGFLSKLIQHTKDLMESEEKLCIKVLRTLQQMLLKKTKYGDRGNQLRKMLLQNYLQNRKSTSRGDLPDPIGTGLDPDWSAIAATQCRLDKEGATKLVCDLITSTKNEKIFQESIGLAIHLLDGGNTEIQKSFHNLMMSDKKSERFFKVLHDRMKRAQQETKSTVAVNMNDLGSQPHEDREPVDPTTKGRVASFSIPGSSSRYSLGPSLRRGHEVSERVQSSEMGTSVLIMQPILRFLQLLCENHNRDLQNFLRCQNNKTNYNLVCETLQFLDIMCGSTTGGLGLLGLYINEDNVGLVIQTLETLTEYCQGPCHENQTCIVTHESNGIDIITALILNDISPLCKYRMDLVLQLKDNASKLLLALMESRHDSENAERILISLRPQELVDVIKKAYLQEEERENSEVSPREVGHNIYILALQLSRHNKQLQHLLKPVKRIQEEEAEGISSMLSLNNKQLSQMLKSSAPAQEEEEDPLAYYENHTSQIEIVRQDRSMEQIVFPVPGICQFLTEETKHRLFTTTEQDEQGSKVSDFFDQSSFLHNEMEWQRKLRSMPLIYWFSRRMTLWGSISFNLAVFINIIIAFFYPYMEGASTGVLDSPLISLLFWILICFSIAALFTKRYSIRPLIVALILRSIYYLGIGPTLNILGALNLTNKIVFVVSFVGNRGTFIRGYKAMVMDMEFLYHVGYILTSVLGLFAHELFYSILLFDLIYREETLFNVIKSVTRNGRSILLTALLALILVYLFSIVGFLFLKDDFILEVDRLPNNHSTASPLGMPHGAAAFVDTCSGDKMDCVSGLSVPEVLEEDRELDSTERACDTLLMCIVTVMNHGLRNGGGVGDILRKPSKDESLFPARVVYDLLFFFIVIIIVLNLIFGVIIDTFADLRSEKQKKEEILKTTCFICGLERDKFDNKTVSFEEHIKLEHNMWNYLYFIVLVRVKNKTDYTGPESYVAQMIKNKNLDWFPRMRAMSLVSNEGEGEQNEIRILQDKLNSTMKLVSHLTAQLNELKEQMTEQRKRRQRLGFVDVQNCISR
UniProt P21796: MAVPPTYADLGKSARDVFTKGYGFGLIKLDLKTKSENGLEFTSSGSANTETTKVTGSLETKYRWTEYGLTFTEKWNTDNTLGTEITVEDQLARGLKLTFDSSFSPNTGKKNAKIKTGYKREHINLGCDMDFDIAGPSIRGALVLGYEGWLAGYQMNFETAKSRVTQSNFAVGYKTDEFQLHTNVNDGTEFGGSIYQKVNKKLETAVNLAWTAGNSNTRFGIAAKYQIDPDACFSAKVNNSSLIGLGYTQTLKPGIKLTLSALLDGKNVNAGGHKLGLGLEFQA

In assay [1] the target is IP3R3 (human (endogenous in HeLa)) (UniProt Q14573). In words: proximity ligation; in situ PLA (Duolink) in fixed, permeabilised shCTR, shPERK and shE-Syt1 HeLa cells with rabbit anti-VDAC1 and mouse anti-IP3R3; dots per nucleus.
Assay [2] addresses T1, eGFP-tagged full length E-Syt1 (Extended-Synaptotagmin 1) (UniProt Q9BSJ8).
T1 sequence: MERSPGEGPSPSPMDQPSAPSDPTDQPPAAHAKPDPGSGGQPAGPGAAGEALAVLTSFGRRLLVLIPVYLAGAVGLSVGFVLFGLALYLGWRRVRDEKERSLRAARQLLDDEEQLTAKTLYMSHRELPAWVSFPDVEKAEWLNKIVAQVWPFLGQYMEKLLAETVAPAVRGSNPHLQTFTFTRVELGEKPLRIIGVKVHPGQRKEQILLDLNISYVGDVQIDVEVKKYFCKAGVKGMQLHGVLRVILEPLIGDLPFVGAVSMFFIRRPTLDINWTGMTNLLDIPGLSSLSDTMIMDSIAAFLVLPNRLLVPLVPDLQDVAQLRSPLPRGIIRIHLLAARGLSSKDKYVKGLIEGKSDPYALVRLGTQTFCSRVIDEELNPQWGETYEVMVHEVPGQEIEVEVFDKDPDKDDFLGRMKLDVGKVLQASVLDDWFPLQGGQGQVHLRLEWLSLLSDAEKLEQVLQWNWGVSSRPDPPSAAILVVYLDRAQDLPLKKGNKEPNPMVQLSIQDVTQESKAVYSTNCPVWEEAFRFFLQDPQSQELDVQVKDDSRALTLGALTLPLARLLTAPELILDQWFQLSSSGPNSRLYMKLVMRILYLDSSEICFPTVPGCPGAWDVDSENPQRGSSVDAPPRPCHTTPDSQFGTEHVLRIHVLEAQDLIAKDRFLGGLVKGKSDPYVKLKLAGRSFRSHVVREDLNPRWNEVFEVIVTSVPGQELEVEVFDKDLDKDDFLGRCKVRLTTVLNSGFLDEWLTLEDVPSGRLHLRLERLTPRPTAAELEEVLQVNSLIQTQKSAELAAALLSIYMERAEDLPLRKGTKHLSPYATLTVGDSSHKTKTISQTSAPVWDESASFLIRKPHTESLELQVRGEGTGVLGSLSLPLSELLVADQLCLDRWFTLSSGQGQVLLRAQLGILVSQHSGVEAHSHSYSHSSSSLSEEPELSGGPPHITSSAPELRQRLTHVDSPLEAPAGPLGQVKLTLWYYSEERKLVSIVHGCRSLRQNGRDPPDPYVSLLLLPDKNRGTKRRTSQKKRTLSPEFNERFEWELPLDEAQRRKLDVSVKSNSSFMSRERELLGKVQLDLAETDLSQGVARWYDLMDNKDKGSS
In words: co-IP; GFP pull-down with conjugated GFP antibody beads from total lysates of transfected HEK293-T cells; lysis in 1% CHAPS, 100 mM KCl, 50 mM Tris HCl, 150 mM NaCl; 500 ug protein, overnight at 4°C; blot for myc, PERK, GFP, CNX.

No constants are given. Whether binding was seen depends on the method and setting. Binding seen in cells or lysates may run through a third protein. Some results given as binding are weak or reduced against the parent protein; the word gives no strength. For some assays here: Where a sequence is shown, tags or fusion partners need not be part of it.

As to VDAC1 (from UniProt P21796 1-283), the binding entry in assay [1] is reported as “binds”.

B1: calnexin (CNX) (protein, UniProt P27824 21-592)
chain: HDGHDDDVIDIEDDLDDVIEEVEDSKPDTTAPPSSPKVTYKAPVPTGEVYFADSFDRGTLSGWILSKAKKDDTDDEIAKYDGKWEVEEMKESKLPGDKGLVLMSRAKHHAISAKLNKPFLFDTKPLIVQYEVNFQNGIECGGAYVKLLSKTPELNLDQFHDKTPYTIMFGPDKCGEDYKLHFIFRHKNPKTGIYEEKHAKRPDADLKTYFTDKKTHLYTLILNPDNSFEILVDQSVVNSGNLLNDMTPPVNPSREIEDPEDRKPEDWDERPKIPDPEAVKPDDWDEDAPAKIPDEEATKPEGWLDDEPEYVPDPDAEKPEDWDEDMDGEWEAPQIANPRCESAPGCGVWQRPVIDNPNYKGKWKPPMIDNPSYQGIWKPRKIPNPDFFEDLEPFRMTPFSAIGLELWSMTSDIFFDNFIICADRRIVDDWANDGWGLKKAADGAAEPGVVGQMIEAAEERPWLWVVYILTVALPVFLVILFCCSGKKQTSGMEYKKTDAPQPDVKEEEEEKEEEKDKGDEEEEGEEKLEEKQKSDAEEDGGTVSQEEEDRKPKAEEDEILNRSPRNRKPRRE
For the molecule B1, the binding result in assay [2] is “no binding”.
